# Reference: PubChem BioAssay AID1259415 (National Center for Advancing Translational Sciences (NCATS), 2018)
# Out of some 410,000 compounds screened, about 18,000 (4.4%) were called active. This list was built around the results that the source calls inconclusive (neither active nor inactive); the mix of calls is not that of the screen. No stated cut-off is given here; in the data, active means activity change below about -60%; inconclusive means no clear call, values can overlap the other calls; inactive means above about -39%.
# Assay: qHTS Assay for inhibitors of the human cytomegalovirus (HCMV)
# Conditions: HFF cells, HCMV-luciferase reporter, 72 h; at 57.5 µM; active compounds read low
# Procedure, shortened: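 Steps: HFFs plated, 16 h 37C; compounds added; HCMV-luciferase added to MOI 1 PFU/cell; 72 h 37C; OneGlo reagent, 5 min room temperature; luminescence read, normalized to controls.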
# On the % scale 0 is the no-effect control and ±100 the full control effect.
row,SMILES,"activity change, negative = inhibition"
1,NC(=O)[C@@H]1CC2(CC(c3cccc(NC(=O)COc4ccc(Cl)cc4)c3)=NO2)CN1C(=O)c1ccccc1 (stereo not given in full),inactive: 16.8%
2,COc1ccc(NC(=O)c2cccn(CC=C(C)C)c2=O)cc1,inconclusive: -41.8%
3,Cn1c(=O)c2c(-c3ccc(Br)cc3)n(Cc3ccc(F)cc3)cc2n(C)c1=O,inconclusive: -52.5%
4,Cc1nc2c(C(F)(F)F)cccc2c2c1CCS2,inconclusive: -40.2%
5,O=c1[nH]c2cc(S(=O)(=O)CCO)ccc2o1,inconclusive: -40.2%
6,CN(C)CCCNC(=O)COc1ccc(Br)cc1Cl,inconclusive: -48.2%
7,O=C(NCCc1ccccc1)c1cc(-c2ccco2)on1,inactive: 109%
8,CCOc1ccc(CCNC(=O)CCCc2nnc3n(CC)c(=O)c4sccc4n23)cc1,inconclusive: -48.8%
9,CCSc1ncc(Cl)c(C(=O)Nc2c(C(=O)Nc3ccccc3)oc3ccccc23)n1,inactive: 30.7%
10,Cc1nnc(SCC(=O)Nc2ccc(O)cc2)c2ccccc12,inconclusive: -46.9%
11,CC(C)(C)c1ccc(C(=O)N2CCN(c3ncccn3)CC2)cc1,inconclusive: -47.7%
12,CCCOc1ccc(C(=O)Nc2ccc(N3CCN(C(C)=O)CC3)cc2)cc1,inconclusive: -43.3%
13,O=C(NC(=S)Nc1ccc(N2CCOCC2)cc1)c1ccc2c(c1)OCCO2,active: -84.7%
14,COc1ccc(C)cc1-n1cnc2cc(C(=O)NC3CCCCCC3)ccc21,inconclusive: -44%
15,Cc1ccc2onc(CNC(=O)NCc3ccc(Cl)cc3)c2c1,inactive: -19.7%
16,O=c1nc2onnc2c(C=NO)[nH]1,inactive: -1.68%
17,O=C(Cn1c(=O)n(CCCC(=O)NC2CCCC2)c(=O)c2ccccc21)NCCC1=CCCCC1,inconclusive: -48.5%
18,Cc1ccc(NS(=O)(=O)c2ccc(Cl)c(C(=O)Nc3cccc(C(=O)O)c3)c2)cc1,inactive: 21%
19,OC(CNCc1cccc(Br)c1)c1ccccc1 (stereo not given),inactive: 1.82%
20,Cc1nn(-c2ccccc2)c(C)c1/C=C/C(=O)OCC(=O)Nc1ncc(C(F)(F)F)cc1Cl,inconclusive: -48.9%
21,O=C(Nc1nnc(C2=COCCO2)o1)C1CCCCC1,inconclusive: -40%
22,COc1cccc(C(=O)N(CN2CCCC2=O)c2cc(C)on2)c1,inconclusive: -56.8%
23,COc1cccc(/C=C2\SC(=S)N(CCCC(=O)N3CCCC3)C2=O)c1,active: -112%

row,SMILES,"activity change, negative = inhibition"
1,O=S(=O)(NCC(Nc1ccc(Cl)cc1)c1ccccc1)c1ccc(Cl)cc1 (stereo not given),inconclusive: -52.8%
2,O=c1ccsc2ccccc12,inactive: 59.3%
3,O=C(OCc1c(Cl)cccc1Cl)c1ccccn1,inconclusive: -40.7%
4,O=S(=O)(Nc1ccccc1Cl)c1ccc2[nH]c(=S)oc2c1,inconclusive: -43.1%
5,O=C(NNC(=S)Nc1cccc(C(F)(F)F)c1)c1ccc(Cl)cc1Cl,active: -66.5%
6,O=C(NCc1ccccc1C(F)(F)F)C1CC(c2ccc(C(F)(F)F)cc2)=NO1 (stereo not given),inconclusive: -47.6%
7,CCOc1ccc(-c2ccc(NS(=O)(=O)c3ccc([N+](=O)[O-])cc3)cc2)nn1,inconclusive: -46%
8,CC(C)CC(=O)Nc1ccccc1N1CCCC1,active: -78.5%
9,O=C(COc1ccc(/C=N/NC(=O)c2cc3ccccc3o2)cc1Br)Nc1ccccc1,active: -100%
10,COCC(=O)N1C[C@H]2CON(C)[C@H]2C[C@H]1c1cccc(-c2cc(Cl)cc(Cl)c2)c1,inactive: -7.97%
11,COc1ccc(-c2nn(-c3ccccc3)cc2/C=N/N=C(N)N)cc1OC,inconclusive: -56.1%
12,COc1ccccc1NC(=O)c1csc2c1CCC(C)C2 (stereo not given),inconclusive: -50.3%
13,Oc1c(Br)cc(Br)cc1CNc1ccccn1,inconclusive: -44.1%
14,COc1cccc(CN(C)C(=O)c2ccc3c(=O)n4c(nc3c2)CCC4)c1OC,inactive: 40.6%
15,O=C(CCc1nc(-c2ccccc2)no1)NCc1ccccc1CN1CCOCC1,inconclusive: -42.7%
16,CCCn1c(C)cc(-c2csc(N)n2)c1C,inconclusive: -44.1%
17,Cc1coc2c1c(C)cc1oc(=O)c(CC(=O)NCC(=O)O)c(C)c12,inconclusive: -44.4%
18,CCOc1ccccc1NS(=O)(=O)N(C)C,inactive: 12.8%
19,O=C(NN1C(=O)NC2(CCCCC2)C1=O)c1ccc(-c2ccc([N+](=O)[O-])cc2)o1,inconclusive: -42.7%
20,CCN(CC)CCC(c1ccc(N(C)C)cc1)c1c(O)cc(OC)cc1OC (stereo not given),inactive: 9.56%
21,Cc1ccnc(Nc2cccnc2)n1,inactive: -4.98%
22,CCOc1ccccc1C(=O)N/N=C/c1coc2ccc(Cl)cc2c1=O,active: -73.6%
23,COc1ccccc1NC(=O)C(C)NC(c1ccccc1)c1ccccc1 (stereo not given),inactive: -13.2%

row,SMILES,"activity change, negative = inhibition"
1,CC(C)OCC(O)Cn1c(N2CCCC2)nc2c1c(=O)[nH]c(=O)n2C (stereo not given),inconclusive: -42.4%
2,CCOC(=O)N1CCN(c2c(NCc3ccc(Cl)cc3)c(=O)c2=O)CC1,active: -74.6%
3,CCCNC(=O)c1cc(S(=O)(=O)N2CCc3ccccc32)cn1C,inconclusive: -41.3%
4,CC(=O)c1c(C)nc2sc3c(=N)n(N)cnc3c2c1-c1ccc(Cl)cc1,inconclusive: -44.5%
5,COC(=O)c1ccccc1NC(=O)CNC(=O)c1ccc(OC)c(OC)c1,inconclusive: -51.9%
6,CCCS(=O)(=O)NC(=O)C1(C)CCCN(C(=O)c2ccccc2Br)C1 (stereo not given),inactive: 1.89%
7,CCOc1ccc(S(=O)(=O)N2CCOCC2)cc1NC(=O)C1CSC2(C)CCC(=O)N12 (stereo not given),inconclusive: -40.8%
8,COc1ccc(CCN(C)c2ncnc3sccc23)cc1OC,inconclusive: -55.5%
9,COCCCn1cnc2c(c1=O)c1nc3ccccc3nc1n2-c1ccc(C)cc1,inconclusive: -40.8%
10,COc1ccccc1CCC(=O)Nc1nc2ccccc2[nH]1,inconclusive: -47.3%
11,COc1ccc(CCNC(=O)c2cc(=O)c3cc(C)ccc3o2)cc1,inconclusive: -49.2%
12,CCOc1ccc(NCc2cccn2-c2nnc(N3CCC(C(=O)NCCCN4C(C)CCCC4C)CC3)s2)cc1 (stereo not given),inconclusive: -54%
13,CCC(=O)N(c1nnc(SCC(=O)Nc2sccc2C(N)=O)s1)C1CC1,inactive: -18.9%
14,COC(=O)[C@]1(C)N[C@H](c2ccc(SC3CCCCC3)cc2)[C@@H]2C(=O)N(C)C(=O)[C@@H]21,inconclusive: -43.1%
15,Cc1nc(SCC(=O)Nc2c(C)n(C)n(-c3ccccc3)c2=O)c2cnn(-c3ccccc3)c2n1,inactive: 57.3%
16,c1ccc(-c2nc3ccccc3nc2-c2ccccn2)nc1,inactive: 3.43%
17,CC(C)C[C@H](N)c1nnc(SCC(=O)Nc2ccc(Br)cc2)o1,inconclusive: 0%
18,Cc1cnc(NC(=O)NCC2CCCC(CNC(=O)Nc3ncc(C)s3)C2)s1 (stereo not given),inconclusive: -53.2%
19,O=C(CN1CCCC1)Nc1ccccc1Sc1ccc(Cl)cc1,inconclusive: -55.3%
20,CCc1cc(C(=O)NCC(c2ccco2)N2CCCCC2)sc1C (stereo not given),inconclusive: -52.2%
21,NS(=O)(=O)c1ccc(NCc2cc(Cl)ccc2OCc2ccc(F)cc2)cc1,inconclusive: -47.1%
22,Cc1ccc(N2C(=O)N(CC(=O)N3CCCc4ccccc43)C(=O)C2C)cc1 (stereo not given),inactive: 26.5%
23,OC1(c2ccc(Cl)cc2)CCN(Cc2cn[nH]c2-c2ccccc2)CC1,inconclusive: -47.8%

# Taken from above:
# Under activity change, negative = inhibition, CCCNC(=O)c1cc(S(=O)(=O)N2CCc3ccccc32)cn1C is entered as inconclusive: -41.3%
# Under activity change, negative = inhibition, O=C(NCc1ccccc1C(F)(F)F)C1CC(c2ccc(C(F)(F)F)cc2)=NO1 (stereo not given) is entered as inconclusive: -47.6%

# Next compounds.

row,SMILES,"activity change, negative = inhibition"
1,COc1cccc(CNC(=O)c2cccc(-n3c(C)nc4cccnc43)c2C)c1,inconclusive: 0%
2,COc1ccc2[nH]c(C)c(CCNC(=S)Nc3cc(C)ccc3C)c2c1,active: -60.6%
3,CC(C)[C@H](NC(=O)OCc1ccccc1)C(=O)OCC(=O)NC1(C#N)CCCC1,inconclusive: -48.9%
4,O=Cc1cn(Cc2c(F)cccc2Cl)nc1-c1ccccc1,inconclusive: -42.5%
5,CCNC(=S)N/N=C(\C)c1ccco1,inconclusive: -54.8%
6,CCOc1ccc2nc(N(Cc3cccnc3)C(=O)C3CCCCC3)sc2c1,inconclusive: -43.9%
7,CCOc1ccccc1Cn1c(=O)sc2ccccc21,active: -66.1%
8,CCC(C)(C)C1CCc2[nH]nc(C(=O)NCc3ccccn3)c2C1 (stereo not given),inconclusive: -48.6%
9,CCc1nn(CC(=O)NCCc2ccc(Cl)cc2)c(=O)c2cc3ccccc3n12,inactive: 16.4%
10,Cc1ccc(Cl)cc1N1CCN(c2cccc[n+]2C)CC1,active: -92.6%
11,Cn1nc(CC(=O)NCc2ccc(F)cc2)c2ccccc2c1=O,inconclusive: -45.7%
12,COC(=O)C1C/C(=N\NS(=O)(=O)c2ccc(C)cc2)c2ccsc2C1 (stereo not given),inactive: -39.3%
13,Cc1cccn2c(=O)c(C=O)c(N3CC(C)OC(C)C3)nc12 (stereo not given),inconclusive: -41.2%
14,Cc1ccc(NS(=O)(=O)c2cc(-c3cc(C)no3)ccc2C)c(Cl)c1,inactive: 0%
15,Cc1ccc(C(=O)NCC(c2ccco2)N2CCCCC2)s1 (stereo not given),inactive: -1.56%
16,COc1cc(C(=O)Nc2ccc(N3CCN(C(=O)c4ccc(C)cc4)CC3)cc2)cc(OC)c1OC,inconclusive: -51.1%
17,CCc1ccc(NC(=O)N(Cc2c[nH]c3ccccc23)C2CCCCC2)cc1,inactive: 35.5%
18,Cc1cc(C)cc(NC(=S)NCc2cccnc2)c1,inconclusive: -47.1%
19,COc1cc2c(cc1OC)-c1cc3ccc4c(c3c[n+]1CC2)OCO4,inactive: -33.4%
20,CCOc1ccc(/C=C2/SC(=O)NC2=S)cc1,inconclusive: -42.7%
21,COc1ccc(OCC(=O)Nc2ccc3c(c2)nc(CCN2CCN(c4ccccn4)CC2)n3C)cc1,inconclusive: -58%

# Not a retest: entries from further up.
row,SMILES,"activity change, negative = inhibition"
8,CCOc1ccc(CCNC(=O)CCCc2nnc3n(CC)c(=O)c4sccc4n23)cc1,inconclusive: -48.8%
9,CCSc1ncc(Cl)c(C(=O)Nc2c(C(=O)Nc3ccccc3)oc3ccccc23)n1,inactive: 30.7%
10,Cc1nnc(SCC(=O)Nc2ccc(O)cc2)c2ccccc12,inconclusive: -46.9%
11,CC(C)(C)c1ccc(C(=O)N2CCN(c3ncccn3)CC2)cc1,inconclusive: -47.7%
